Some of the results follow. Single values are uncertain here, since repeats match poorly.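 Human embryonic kidney cells were transiently transfected with a plasmid bearing a Renilla luciferase gene under the HSV-TK promoter. This first-round screen tests roughly ten thousand compounds for ones that increase reporter output.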
system: HEK 293FT; assay: log relative Renilla luciferase luminescence (reporter expression vs reference, reference not stated) (log (base not stated)); higher = higher recombinant reporter expression; settings: 10 µM; time after transfection 48 h

Row | Structure (SMILES) | log
1 | O=C1CN2Cc3c(ccc(Cl)c3Cl)N=C2N1 | -0.139
2 | C#C[C@]1(O)CC[C@H]2[C@@H]3[C@H](C)CC4=C(CCC(=O)C4)[C@H]3CC[C@@]21C | -0.122
3 | CCOC(=O)[C@H](CCc1ccccc1)N[C@H]1CCc2ccccc2N(CC(=O)O)C1=O | -0.143
4 | CNCC[C@H](Oc1cccc2ccccc12)c1cccs1 | 0.154
5 | CC(C)OC(=O)CCC/C=C\C[C@@H]1[C@@H](CC[C@@H](O)CCc2ccccc2)[C@H](O)C[C@@H]1O | -0.126
6 | C[C@]12CC[C@@H]3c4ccc(OS(=O)(=O)O)cc4CC[C@H]3[C@@H]1CCC2=O | 0.0685
7 | CCCN[C@H]1CCc2nc(N)sc2C1 | -0.15

Part of the list above, as comma-separated lines.
Row,Structure (SMILES),log
1,O=C1CN2Cc3c(ccc(Cl)c3Cl)N=C2N1,-0.139
3,CCOC(=O)[C@H](CCc1ccccc1)N[C@H]1CCc2ccccc2N(CC(=O)O)C1=O,-0.143
6,C[C@]12CC[C@@H]3c4ccc(OS(=O)(=O)O)cc4CC[C@H]3[C@@H]1CCC2=O,0.0685

system: HEK 293FT; assay: as above; settings: 10 µM; time after transfection 48 h; remark: another data set of the same source

Row | Structure (SMILES) | log
8 | O=c1cc(-c2ccc(O)cc2)oc2cc(O)cc(O)c12 [Apigenin] | -0.0288
9 | O=C(/C=C/c1ccc(O)c(O)c1)O[C@H](Cc1ccc(O)c(O)c1)C(=O)O [Rosmarinic acid] | 0.0467
10 | C=C1C(=O)O[C@@H]2/C=C(\C)CC/C=C(\C)CC[C@@H]12 [Costunolide] | -1.12
11 | O=c1c(O)c(-c2ccc(O)cc2)oc2cc(O)cc(O)c12 [Kaempferol] | -0.0231
12 | C=C1C(=O)O[C@H]2[C@H]1CC/C(C)=C/CC[C@@]1(C)O[C@@H]21 [Parthenolide] | 0.155

From the supplement of paper PMC7024190
